In one experiment the target is T1, GFP-Ctr9 (S. cerevisiae) (UniProt P89105).
T1 sequence: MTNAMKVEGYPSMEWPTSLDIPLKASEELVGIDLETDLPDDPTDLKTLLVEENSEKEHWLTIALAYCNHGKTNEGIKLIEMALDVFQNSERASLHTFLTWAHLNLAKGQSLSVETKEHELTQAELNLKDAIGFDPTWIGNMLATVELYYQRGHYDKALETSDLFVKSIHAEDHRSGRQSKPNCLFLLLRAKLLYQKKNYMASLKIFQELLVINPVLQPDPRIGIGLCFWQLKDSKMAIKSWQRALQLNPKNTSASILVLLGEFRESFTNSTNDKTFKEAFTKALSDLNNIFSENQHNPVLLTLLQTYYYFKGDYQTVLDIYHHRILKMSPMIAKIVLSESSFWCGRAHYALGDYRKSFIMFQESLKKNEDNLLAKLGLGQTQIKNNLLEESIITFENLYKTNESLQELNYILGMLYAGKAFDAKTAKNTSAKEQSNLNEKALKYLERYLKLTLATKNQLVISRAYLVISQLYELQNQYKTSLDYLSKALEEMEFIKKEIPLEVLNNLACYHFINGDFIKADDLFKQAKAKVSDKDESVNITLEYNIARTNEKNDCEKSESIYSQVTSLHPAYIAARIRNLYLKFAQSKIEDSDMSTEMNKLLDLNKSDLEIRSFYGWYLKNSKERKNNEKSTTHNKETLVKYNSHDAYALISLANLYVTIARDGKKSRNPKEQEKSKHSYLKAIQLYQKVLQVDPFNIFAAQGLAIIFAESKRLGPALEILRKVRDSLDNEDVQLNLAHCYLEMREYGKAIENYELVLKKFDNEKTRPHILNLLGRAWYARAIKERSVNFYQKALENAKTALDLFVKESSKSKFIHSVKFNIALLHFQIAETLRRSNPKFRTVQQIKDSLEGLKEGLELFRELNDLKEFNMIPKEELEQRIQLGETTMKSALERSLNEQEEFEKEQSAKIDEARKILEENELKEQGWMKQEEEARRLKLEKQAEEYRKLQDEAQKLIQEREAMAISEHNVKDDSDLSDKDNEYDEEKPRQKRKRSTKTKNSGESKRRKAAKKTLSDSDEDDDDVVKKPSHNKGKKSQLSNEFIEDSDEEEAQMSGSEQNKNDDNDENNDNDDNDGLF
Nature of the experiment: co-IP; HEK293T co-transfected with the yeast Paf1C subunits (GFP-Ctr9 or GFP-Paf1 as bait, the others Myc-tagged); agarose-conjugated anti-GFP, blot with anti-Myc.

The target of the next experiment is T2, GFP-Paf1 (S. cerevisiae) (UniProt P38351).
T2 sequence: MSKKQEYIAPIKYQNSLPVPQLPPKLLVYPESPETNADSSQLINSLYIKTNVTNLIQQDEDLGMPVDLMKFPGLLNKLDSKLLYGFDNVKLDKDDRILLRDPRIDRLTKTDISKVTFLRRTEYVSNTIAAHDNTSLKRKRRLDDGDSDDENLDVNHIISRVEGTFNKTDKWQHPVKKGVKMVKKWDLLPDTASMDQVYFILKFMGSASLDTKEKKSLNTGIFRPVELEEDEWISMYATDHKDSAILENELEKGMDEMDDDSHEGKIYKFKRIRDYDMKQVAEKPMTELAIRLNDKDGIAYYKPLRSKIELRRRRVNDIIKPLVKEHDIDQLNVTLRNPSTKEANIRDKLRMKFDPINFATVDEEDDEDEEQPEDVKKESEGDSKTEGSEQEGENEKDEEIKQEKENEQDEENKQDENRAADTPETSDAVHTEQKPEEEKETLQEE
Described as above.

Experiment [1] has as its target T3, GFP-Paf1(L83S) (S. cerevisiae) (UniProt P38351).
T3 sequence: T2 sequence with L83S
The description is as above.

The target in experiment [2] is T4, Ctr9^(1–313) (S. cerevisiae, UniProt P89105 1-313).
T4 construct: In the crystal it stood as part of the single-chain fusion m36; source: E. coli BL21(DE3) Codon Plus, co-expressed with a Paf1 fragment, purified (Ni-NTA, SEC)
T4 sequence (looked up): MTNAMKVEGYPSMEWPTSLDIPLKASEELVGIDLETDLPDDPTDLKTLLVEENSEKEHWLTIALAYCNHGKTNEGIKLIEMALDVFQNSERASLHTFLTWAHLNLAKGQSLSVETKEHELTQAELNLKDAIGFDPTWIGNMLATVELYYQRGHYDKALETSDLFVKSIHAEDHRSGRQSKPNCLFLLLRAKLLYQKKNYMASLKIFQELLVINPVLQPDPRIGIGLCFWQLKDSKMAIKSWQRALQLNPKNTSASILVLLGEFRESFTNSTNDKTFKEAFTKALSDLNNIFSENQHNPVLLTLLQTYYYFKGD
Nature of the experiment: SEC; two fragments co-expressed in E. coli and co-purified; analytical size-exclusion column with SDS-PAGE of the fractions; both purified. (In general: Size exclusion chromatography separates by hydrodynamic size, large species first.)

For another experiment, the target named is T5, Ctr9^(1–270) (S. cerevisiae, UniProt P89105 1-270).
T5 construct: S. cerevisiae Ctr9, residues 1-270
T5 sequence (looked up): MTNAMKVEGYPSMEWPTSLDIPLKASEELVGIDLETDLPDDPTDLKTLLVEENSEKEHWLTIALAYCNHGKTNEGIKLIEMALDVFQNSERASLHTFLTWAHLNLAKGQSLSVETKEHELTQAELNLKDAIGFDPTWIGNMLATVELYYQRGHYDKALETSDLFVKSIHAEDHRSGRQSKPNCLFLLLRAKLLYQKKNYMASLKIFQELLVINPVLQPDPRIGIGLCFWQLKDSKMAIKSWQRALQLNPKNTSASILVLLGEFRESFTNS
The experiment is described as above.

The target in experiment [3] is T4, Ctr9^(1–313). Nature of the experiment: crystal structure; single-chain fusion Ctr9(1-313)-TEV segment-Paf1(34-103), Se-Met-substituted; 20 °C, 0.1 M Tris-HCl pH 8.5, 0.8 M lithium sulfate, 0.01 M nickel chloride; 2.53 Å; both purified.

Residue numbers refer to the chain shown, from its start. No constants are given. Whether binding was seen depends on the method and setting. For some assays here: Binding seen in cells or lysates may run through a third protein. Some binding calls cover weakened binding; strength is not graded here. For some assays here: Tags and fused reporters may be left off the sequences shown.

As to 13×Myc-Rtf1 (from UniProt P53064 1-558), the binding entry (with GFP-Ctr9 (S. cerevisiae); with GFP-Paf1 (S. cerevisiae); in experiment [1]) was “binds” in each case.

B1: Paf1^(34–103) (domain or fragment, S. cerevisiae, UniProt P38351 34-103, looked up)
chain: ETNADSSQLINSLYIKTNVTNLIQQDEDLGMPVDLMKFPGLLNKLDSKLLYGFDNVKLDKDDRILLRDPR
notes: In the crystal it stood as part of the single-chain fusion m36; source: E. coli BL21(DE3) Codon Plus, co-expressed with a Ctr9 fragment, purified (Ni-NTA, SEC)
For B1, the binding result in the experiment with Ctr9^(1–313) [2], with Ctr9^(1–270) and in the experiment with Ctr9^(1–313) [3] was “binds” each time.

B2: Myc-Ctr9 (protein, UniProt P89105 1-1077)
chain: T1 sequence
With B2, the binding result (with GFP-Paf1 (S. cerevisiae); in experiment [1]) was “binds” throughout.

B3: Myc-Cdc73 (protein, UniProt Q06697 1-393)
chain: MANSLDRLREHLKNGDKLVLKNNEGQSTDDITKATMVETLSSDGSTQDSFPLNEETEIEIDGSLVQLRIIVHCWMNKDSSAADYLADCQNKQLTNVSFLQRTDLINWLSGNTESSQYLKAPGQKGETSDKVDIENKTLAGELSTVKSTTSASLENDSEVSDPVVVETMKHERILVDHNSALRGAKPINFGYLIKDAELKLVQSIKGSLRGSKLPPGHKGAHGRISKTNGSSGGPRKDPIILIPSAASSILTVANIKQFLLESKYVNPRNLPSVPNGLVNIEKNFERISRPIRFIIVDNTRMFTKPEYWDRVVAIFTTGHTWQFNNYQWNSPQELFQRCKGYYFHFAGDSVPQHVQQWNVEKVELDKNKRFKDVEVVRYFWHSLEKELISRGYR
Regarding B3, the binding entry (with GFP-Ctr9 (S. cerevisiae); with GFP-Paf1 (S. cerevisiae); in experiment [1]) was “binds” in each case.

The values above are taken from PMC6143631 (Nature Communications, 2018).
